Experimental data taken from patent US10517862B2, “Fused heterocyclic compound derivative and application thereof” (NHWA PHARMA. CORPORATION, priority 2015, dated 2019).

Test system: mice of Kunming breed
Experiment: Catalepsy assay in mice
Type: in vivo
Settings: ratio of ED50 values, po
Description: Healthy mice of Kunming breed (with half male and half female, (22±2) g) were provided by Qinglongshan Animal Cultivation Center, Nanjing.
Instruments: self-made bar-grabbing apparatus: stainless steel bar in mice box, which was 0.3 cm in diameter and […].
Corresponding solvent double-distilled water was administered intragastrically to the negative control group and the model group, corresponding positive drugs were administered intragastrically to the positive drug groups (a small amount of acetic acid was first added and then double-distilled water was added when dissolving), and corresponding dosages of compounds were administered intragastrically to the compound groups for each dosage, with the volume for intragastric administration as 0.1 ml/10 g. At 30 min, 60 min, 90 min after the intragastric administration, the two forepaws of the mice were gently placed on the bars (which were 20 cm in length, 0.3 cm in diameter, and 5.5 cm above the bench), and the hindpaws of the animals were placed on the bottom of the box. The durations of the mice to maintain the posture with the two forepaws on the bars were recorded, and 30 s of spasticity without moving was considered as the positive response. In the case the forepaws of the mice were not put down persistently, the observation was terminated at 60 s. The numbers of animals with positive response in each of the compound dosage groups were counted.

Compound	Catalepsy/Apomorphine induced clambering	Catalepsy/MK-801 induced high activity
O=C(CCN1CCC(c2noc3cc(F)ccc23)CC1)c1cc2c3c(c1)CCC(=O)N3CCC2 [Compound 2]	37	19
O=C(CCCN1CCC(c2noc3cc(F)ccc23)CC1)c1cc2c3c(c1)CCC(=O)N3CCC2 [Compound 5]	152	90.90
O=C1CCc2cc(CCCCN3CCC(c4noc5cc(F)ccc45)CC3)cc3c2N1CCC3 [Compound 7]	54	26
O=C(CCN1CCC(c2noc3cc(F)ccc23)CC1)c1cc2c3c(c1)CCN3C(=O)CC2 [Compound 12]	111	140
O=C(CCCN1CCC(c2noc3cc(F)ccc23)CC1)c1cc2c3c(c1)CCN3C(=O)CC2 [Compound 15]	416	238
O=C1CCc2ccc(OCCCCN3CCN(c4cccc(Cl)c4Cl)CC3)cc2N1 [aripiprazole, reference compound]	11.43	20.00
O=C(CCCN1CCC(O)(c2ccc(Cl)cc2)CC1)c1ccc(F)cc1 [haloperidol, reference compound]	4.89	4.40
OCCOCCN1CCN(C2=Nc3ccccc3Sc3ccccc32)CC1 [quetiapine, reference compound]	396.04	79.21
O=C1Cc2cc(CCN3CCN(c4nsc5ccccc45)CC3)c(Cl)cc2N1 [ziprasidone, reference compound]	82.16	54.29
